From the supplement of paper PMC7666118
This is one part of the list.

The chains behind the UniProt entries cited, without tags or fusion partners. Where a name states a change or a piece, a line headed by the entry shows the natural chain unless it says otherwise.
UniProt P33981: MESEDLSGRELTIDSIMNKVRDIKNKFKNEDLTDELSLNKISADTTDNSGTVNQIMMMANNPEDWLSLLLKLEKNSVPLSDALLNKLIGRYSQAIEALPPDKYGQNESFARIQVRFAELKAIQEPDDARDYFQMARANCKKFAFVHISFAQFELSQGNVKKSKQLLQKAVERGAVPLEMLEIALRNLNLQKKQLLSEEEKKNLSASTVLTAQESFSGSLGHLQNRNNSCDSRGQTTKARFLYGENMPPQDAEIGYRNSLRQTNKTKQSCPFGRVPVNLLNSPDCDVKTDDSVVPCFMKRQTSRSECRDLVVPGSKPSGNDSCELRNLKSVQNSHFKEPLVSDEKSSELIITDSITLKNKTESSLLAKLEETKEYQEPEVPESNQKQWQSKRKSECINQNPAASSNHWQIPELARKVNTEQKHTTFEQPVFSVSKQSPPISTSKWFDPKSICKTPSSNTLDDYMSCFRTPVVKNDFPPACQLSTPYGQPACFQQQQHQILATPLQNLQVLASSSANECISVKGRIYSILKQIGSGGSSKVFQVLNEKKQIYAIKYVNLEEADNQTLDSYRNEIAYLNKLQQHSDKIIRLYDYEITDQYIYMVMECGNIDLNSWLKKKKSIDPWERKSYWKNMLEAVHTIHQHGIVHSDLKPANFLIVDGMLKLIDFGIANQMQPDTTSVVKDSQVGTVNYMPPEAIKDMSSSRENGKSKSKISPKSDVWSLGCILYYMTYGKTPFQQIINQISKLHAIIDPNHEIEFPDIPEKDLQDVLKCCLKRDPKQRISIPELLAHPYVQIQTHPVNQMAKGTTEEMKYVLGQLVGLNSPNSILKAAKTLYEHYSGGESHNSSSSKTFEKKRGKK
UniProt Q13049: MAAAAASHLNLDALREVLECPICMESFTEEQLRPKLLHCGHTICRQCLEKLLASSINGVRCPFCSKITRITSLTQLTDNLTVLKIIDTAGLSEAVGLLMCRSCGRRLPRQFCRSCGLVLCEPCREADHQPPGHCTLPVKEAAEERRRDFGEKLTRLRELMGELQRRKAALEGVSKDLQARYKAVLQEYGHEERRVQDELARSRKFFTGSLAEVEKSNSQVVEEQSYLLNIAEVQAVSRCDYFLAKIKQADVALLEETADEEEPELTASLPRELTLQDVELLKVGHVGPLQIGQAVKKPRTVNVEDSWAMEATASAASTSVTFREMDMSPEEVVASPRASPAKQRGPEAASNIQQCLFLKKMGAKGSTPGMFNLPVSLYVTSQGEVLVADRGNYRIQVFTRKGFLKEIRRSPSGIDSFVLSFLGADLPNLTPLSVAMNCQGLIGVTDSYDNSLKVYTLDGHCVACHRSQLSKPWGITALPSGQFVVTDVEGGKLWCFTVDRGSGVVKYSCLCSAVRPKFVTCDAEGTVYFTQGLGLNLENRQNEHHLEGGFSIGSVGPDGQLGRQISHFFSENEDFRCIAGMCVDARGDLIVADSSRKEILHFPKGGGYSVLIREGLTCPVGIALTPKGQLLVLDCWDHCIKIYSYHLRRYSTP
UniProt P51784: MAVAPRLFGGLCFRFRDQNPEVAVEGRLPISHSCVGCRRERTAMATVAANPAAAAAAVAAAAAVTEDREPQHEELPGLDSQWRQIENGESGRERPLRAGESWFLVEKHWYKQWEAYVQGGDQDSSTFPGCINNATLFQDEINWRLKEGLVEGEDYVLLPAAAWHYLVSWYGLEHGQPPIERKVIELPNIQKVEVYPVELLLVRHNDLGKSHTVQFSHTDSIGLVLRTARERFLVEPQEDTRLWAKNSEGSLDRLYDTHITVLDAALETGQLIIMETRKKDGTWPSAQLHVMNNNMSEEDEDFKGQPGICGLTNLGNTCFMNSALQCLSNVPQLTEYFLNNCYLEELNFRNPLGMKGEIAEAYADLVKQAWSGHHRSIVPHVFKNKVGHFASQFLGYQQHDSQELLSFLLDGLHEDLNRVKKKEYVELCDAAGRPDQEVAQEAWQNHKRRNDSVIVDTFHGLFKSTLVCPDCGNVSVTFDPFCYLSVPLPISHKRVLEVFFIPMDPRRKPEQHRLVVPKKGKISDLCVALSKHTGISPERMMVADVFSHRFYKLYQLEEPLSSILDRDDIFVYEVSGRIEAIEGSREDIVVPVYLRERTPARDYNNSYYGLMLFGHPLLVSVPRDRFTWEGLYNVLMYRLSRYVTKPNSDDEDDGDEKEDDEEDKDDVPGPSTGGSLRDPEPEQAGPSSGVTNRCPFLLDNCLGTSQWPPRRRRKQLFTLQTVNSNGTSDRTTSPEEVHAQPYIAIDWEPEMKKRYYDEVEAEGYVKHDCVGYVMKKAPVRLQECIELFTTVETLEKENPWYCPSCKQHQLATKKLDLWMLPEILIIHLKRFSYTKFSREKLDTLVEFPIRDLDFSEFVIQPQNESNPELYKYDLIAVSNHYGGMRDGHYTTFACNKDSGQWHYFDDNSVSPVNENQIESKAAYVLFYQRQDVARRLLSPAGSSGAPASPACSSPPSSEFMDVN
UniProt Q6IBS0: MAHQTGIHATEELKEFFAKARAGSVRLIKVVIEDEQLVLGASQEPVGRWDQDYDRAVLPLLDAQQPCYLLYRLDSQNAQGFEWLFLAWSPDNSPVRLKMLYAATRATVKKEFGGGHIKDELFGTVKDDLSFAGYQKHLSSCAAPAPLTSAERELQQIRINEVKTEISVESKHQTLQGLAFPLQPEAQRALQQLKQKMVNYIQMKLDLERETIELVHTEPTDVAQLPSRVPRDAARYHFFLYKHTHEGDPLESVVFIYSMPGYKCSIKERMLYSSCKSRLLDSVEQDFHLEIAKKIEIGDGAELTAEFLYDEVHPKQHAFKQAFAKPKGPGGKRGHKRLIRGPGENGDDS
UniProt Q7Z6J8: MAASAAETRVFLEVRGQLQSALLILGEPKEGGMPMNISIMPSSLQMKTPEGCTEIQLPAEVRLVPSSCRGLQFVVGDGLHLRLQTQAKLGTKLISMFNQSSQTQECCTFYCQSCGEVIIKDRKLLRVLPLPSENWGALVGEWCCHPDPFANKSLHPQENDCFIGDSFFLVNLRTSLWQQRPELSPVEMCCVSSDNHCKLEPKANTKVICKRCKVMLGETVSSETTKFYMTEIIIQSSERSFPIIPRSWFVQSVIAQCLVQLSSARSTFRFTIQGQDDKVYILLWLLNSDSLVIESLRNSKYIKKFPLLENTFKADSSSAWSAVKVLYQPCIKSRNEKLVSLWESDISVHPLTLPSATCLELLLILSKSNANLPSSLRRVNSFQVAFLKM
UniProt Q969M7: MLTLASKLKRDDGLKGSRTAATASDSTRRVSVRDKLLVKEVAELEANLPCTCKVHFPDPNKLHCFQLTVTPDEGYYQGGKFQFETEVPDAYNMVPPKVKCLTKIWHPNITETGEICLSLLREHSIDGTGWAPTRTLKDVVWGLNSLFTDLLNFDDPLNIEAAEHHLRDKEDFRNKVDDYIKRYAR
UniProt P62256: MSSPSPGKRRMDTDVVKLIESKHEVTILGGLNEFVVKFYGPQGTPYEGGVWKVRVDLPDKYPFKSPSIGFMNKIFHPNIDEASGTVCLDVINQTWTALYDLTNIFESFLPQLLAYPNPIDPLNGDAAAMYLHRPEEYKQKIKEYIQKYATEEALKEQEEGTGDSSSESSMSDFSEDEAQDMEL
UniProt Q9H832: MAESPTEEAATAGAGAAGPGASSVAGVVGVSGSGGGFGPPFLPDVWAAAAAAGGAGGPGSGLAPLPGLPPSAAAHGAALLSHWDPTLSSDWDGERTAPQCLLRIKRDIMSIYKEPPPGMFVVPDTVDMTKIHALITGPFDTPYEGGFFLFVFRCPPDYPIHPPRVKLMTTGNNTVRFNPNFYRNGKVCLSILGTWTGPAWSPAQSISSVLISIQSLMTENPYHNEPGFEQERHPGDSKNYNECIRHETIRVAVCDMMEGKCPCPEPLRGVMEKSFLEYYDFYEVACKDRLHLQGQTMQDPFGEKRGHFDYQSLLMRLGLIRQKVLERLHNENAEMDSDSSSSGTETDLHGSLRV
UniProt Q9GZX9: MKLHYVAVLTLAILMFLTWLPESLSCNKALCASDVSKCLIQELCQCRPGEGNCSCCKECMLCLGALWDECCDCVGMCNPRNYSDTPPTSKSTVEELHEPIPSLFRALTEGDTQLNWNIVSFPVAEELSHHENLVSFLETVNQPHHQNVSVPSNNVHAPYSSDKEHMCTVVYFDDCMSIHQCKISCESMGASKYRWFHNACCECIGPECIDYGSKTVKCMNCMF
UniProt Q9HAU5: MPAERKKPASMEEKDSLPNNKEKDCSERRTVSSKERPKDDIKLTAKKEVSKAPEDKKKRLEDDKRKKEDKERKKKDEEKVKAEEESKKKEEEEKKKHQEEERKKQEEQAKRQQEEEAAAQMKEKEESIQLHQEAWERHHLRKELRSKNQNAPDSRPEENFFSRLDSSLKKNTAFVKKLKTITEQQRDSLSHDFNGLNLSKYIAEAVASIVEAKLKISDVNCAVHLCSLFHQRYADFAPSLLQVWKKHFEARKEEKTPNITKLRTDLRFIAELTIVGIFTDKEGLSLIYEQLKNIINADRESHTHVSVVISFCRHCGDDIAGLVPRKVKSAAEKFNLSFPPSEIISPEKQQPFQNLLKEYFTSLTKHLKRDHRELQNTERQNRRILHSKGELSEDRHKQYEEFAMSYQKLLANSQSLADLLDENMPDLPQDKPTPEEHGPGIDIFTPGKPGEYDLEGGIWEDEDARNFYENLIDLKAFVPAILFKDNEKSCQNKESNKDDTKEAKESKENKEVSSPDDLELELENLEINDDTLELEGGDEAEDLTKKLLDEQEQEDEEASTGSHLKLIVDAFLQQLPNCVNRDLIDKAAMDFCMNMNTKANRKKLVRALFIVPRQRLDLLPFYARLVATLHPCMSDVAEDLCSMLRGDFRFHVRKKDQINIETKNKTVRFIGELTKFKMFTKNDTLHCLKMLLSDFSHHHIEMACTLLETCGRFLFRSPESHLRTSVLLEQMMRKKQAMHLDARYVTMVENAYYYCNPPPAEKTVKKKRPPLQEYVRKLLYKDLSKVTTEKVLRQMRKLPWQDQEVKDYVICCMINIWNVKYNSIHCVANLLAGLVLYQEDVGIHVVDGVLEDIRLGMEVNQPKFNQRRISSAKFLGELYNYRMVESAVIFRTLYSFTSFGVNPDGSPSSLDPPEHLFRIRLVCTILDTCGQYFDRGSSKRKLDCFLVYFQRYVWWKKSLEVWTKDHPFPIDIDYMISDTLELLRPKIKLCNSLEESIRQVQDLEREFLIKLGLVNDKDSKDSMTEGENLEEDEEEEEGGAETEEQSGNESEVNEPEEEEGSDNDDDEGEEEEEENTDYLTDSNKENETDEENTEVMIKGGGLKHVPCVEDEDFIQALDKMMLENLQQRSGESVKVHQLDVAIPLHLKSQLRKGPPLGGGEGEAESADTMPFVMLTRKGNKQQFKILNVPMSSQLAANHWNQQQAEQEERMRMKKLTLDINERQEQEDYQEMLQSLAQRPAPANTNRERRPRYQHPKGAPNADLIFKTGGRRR
UniProt Q15642: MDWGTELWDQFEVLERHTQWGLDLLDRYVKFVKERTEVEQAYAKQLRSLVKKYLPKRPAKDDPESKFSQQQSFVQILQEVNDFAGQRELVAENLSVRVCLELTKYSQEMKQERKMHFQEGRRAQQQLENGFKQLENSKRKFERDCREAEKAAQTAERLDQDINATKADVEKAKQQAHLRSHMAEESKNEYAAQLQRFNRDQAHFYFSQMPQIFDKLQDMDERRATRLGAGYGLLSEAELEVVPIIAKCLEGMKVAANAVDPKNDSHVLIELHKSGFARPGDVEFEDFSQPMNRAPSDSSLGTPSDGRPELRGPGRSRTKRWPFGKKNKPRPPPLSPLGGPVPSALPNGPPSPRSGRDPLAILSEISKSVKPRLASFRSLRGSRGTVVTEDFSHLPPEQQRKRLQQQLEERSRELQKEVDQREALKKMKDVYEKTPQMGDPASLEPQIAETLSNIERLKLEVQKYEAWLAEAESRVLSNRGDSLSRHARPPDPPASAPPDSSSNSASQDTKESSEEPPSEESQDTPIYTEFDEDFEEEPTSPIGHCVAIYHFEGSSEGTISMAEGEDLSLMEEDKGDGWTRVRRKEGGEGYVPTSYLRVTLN
UniProt Q99598: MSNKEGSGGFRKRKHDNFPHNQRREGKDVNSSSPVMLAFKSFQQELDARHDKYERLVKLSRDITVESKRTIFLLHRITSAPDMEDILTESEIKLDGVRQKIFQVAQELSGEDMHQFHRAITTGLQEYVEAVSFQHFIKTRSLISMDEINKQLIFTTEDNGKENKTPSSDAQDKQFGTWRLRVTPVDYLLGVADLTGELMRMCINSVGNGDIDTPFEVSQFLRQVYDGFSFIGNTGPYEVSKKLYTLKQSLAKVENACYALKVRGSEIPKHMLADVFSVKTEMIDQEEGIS
UniProt Q8N2K1: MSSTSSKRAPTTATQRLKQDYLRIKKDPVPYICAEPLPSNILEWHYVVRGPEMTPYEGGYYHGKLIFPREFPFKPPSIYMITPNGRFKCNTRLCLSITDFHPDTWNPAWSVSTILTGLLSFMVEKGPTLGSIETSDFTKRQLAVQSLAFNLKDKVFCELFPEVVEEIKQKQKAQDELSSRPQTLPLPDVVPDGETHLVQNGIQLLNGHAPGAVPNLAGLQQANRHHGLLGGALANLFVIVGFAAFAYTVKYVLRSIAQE

Compound: COc1ccc(Cn2ccc3ccc(C(=O)NO)cc32)cc1
Experiment: dose-dependent thermal stabilisation call (2D-TPP, DLPTP, 10% FDR) (binary (1 = stabilised)); higher = stabilised by the compound
Details: system: HL-60 intact cells; concentration range 0.04-10 µM

Target	dose-dependent thermal stabilisation call
TRAF6 (UniProt Q9Y4K3)	inactive: 0
TTK (UniProt P33981)	inactive: 0
TRIM32 (UniProt Q13049)	inactive: 0
USP11 (UniProt P51784)	inactive: 0
UNC93B1 (UniProt Q9H1C4)	inactive: 0
UBE2J1 (UniProt Q9Y385)	inactive: 0
USP47 (UniProt Q96K76)	inactive: 0
UBL7 (UniProt Q96S82)	inactive: 0
TTC27 (UniProt Q6P3X3)	inactive: 0
UQCRH (UniProt P07919)	inactive: 0
TWF2 (UniProt Q6IBS0)	inactive: 0
UBE2CBP (UniProt Q7Z6J8)	inactive: 0
USP7 (UniProt Q93009)	inactive: 0
UBE2F (UniProt Q969M7)	inactive: 0
TSPAN14 (UniProt Q8NG11)	inactive: 0
UBE2H (UniProt P62256)	inactive: 0
UBE2Z (UniProt Q9H832)	inactive: 0
TRAFD1 (UniProt O14545)	inactive: 0
TWSG1 (UniProt Q9GZX9)	inactive: 0
TTC1 (UniProt Q99614)	inactive: 0
UPF2 (UniProt Q9HAU5)	inactive: 0
TRIP4 (UniProt Q15650)	inactive: 0
TRIP10 (UniProt Q15642)	inactive: 0
TSEN2 (UniProt Q8NCE0)	inactive: 0
TSNAX (UniProt Q99598)	inactive: 0
UBE2J2 (UniProt Q8N2K1)	inactive: 0
TSTA3 (UniProt Q13630)	inactive: 0

A different layout for part of the listing above:
Target,dose-dependent thermal stabilisation call
USP7 (UniProt Q93009),inactive: 0
UBE2F (UniProt Q969M7),inactive: 0
